In article PMC8998810:
These are yes or no findings as the source states them, for the method shown. Binding seen in cells or lysates may run through a third protein. Some results given as binding are weak or reduced against the parent protein; the word gives no strength. Where a sequence is shown, tags or fusion partners need not be part of it. Each block holds one binder with its values, some of them ahead of it.

How the values were obtained:
[1] = molecular target: T1, RIN4-YC (full-length RPM1-interacting protein 4 fused with the C-terminus of YFP) (Arabidopsis) (UniProt Q8GYN5); assay: split reporter; BiFC with split YFP; YN-AHAs and RIN4-YC co-infiltrated by Agrobacterium into N. benthamiana leaves; fluorescence checked at 3 dpi; empty YN as negative control
T1 sequence: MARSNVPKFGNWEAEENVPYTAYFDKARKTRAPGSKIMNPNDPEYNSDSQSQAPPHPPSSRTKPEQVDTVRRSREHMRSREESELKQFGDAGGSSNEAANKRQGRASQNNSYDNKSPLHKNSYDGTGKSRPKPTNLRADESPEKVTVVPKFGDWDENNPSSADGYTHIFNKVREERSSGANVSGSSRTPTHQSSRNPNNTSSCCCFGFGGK

[2] = molecular target: T2, Cluc-RIN4 (full-length RIN4 fused with the C-terminus of luciferase) (Arabidopsis) (UniProt Q8GYN5); assay: split reporter; luciferase complementation imaging (LCI); Nluc-AHA1/5 and Cluc-RIN4 co-infiltrated by Agrobacterium into N. benthamiana leaves; 1 mM luciferin, imaged at 3 dpi; empty Cluc as negative control
T2 sequence: T1 sequence

binding [1]: binds
B1: YN-AHA5 (full-length PM H+-ATPase AHA5 fused with the N-terminus of YFP) (protein, UniProt Q9SJB3 1-949)
chain: MSELDHIKNESVDLVRIPMEEVFEELKCTKQGLTANEASHRLDVFGPNKLEEKKESKLLKFLGFMWNPLSWVMEVAALMAIALANGGGRPPDWQDFVGIVCLLLINSTISFIEENNAGNAAAALMAGLAPKTKVLRDNQWSEQEASILVPGDVISIKLGDIIPADARLLDGDPLKIDQSSLTGESIPVTKNPSDEVFSGSICKQGEIEAIVIATGVHTFFGKAAHLVDNTNQIGHFQKVLTSIGNFCICSIALGIIVELLVMYPIQRRRYRDGIDNLLVLLIGGIPIAMPSVLSVTMATGSHRLFQQGAITKRMTAIEEMAGMDVLCCDKTGTLTLNKLTVDKNLVEVFAKGVGKEHVFLLAARASRIENQDAIDAAIVGMLADPKEARAGVREVHFFPFNPVDKRTALTYVDSDGNWHRASKGAPEQILNLCNCKEDVRRKVHGVIDKFAERGLRSLAVARQEVLEKKKDAPGGPWQLVGLLPLFDPPRHDSAETIRRALNLGVNVKMITGDQLAIGKETGRRLGMGTNMYPSSALLGQVKDSSLGALPVDELIEKADGFAGVFPEHKYEIVHRLQQRNHICGMTGDGVNDAPALKKADIGIAVVDATDAARGASDIVLTEPGLSVIISAVLTSRAIFQRMKNYTIYAVSITIRIVFGFMFIALIWQFDFSPFMVLIIAILNDGTIMTISKDRMKPSPQPDSWKLRDIFSTGVVLGGYQALMTVVFFWVMKDSDFFSNYFGVRPLSQRPEQMMAALYLQVSIISQALIFVTRSRSWSYAECPGLLLLGAFVIAQLVATFIAVYANWSFARIEGAGWGWAGVIWLYSFLTYIPLDLLKFGIRYVLSGKAWLNLLENKTAFTTKKDYGKEEREAQWAAAQRTLHGLQPAEKNNIFNEKNSYSELSQIAEQAKRRAEVVRLREINTLKGHVESVVKLKGLDIDTIQQHYTV

binding [2]: binds
B2: Nluc-AHA5 (full-length AHA5 fused with the N-terminus of luciferase) (protein, UniProt Q9SJB3 1-949)
chain: B1 chain
